Data published in patent publication US8104331B2, “Method and device to extract components contained in a fluid” (Noab Biodiscoveries Inc., priority 2006, dated 2012).

How the values were obtained:
[1] = In vivo SPME sampling of whole blood for pharmacokinetics after i.v. bolus diazepam; conditions: male, Sprague-Dawley, rat, iv
Protocol: (§1) Animal Experiments: Male Sprague-Dawley rats (Charles River Labs, St. Constant, PQ) with an average weight of 300 g are acclimatized to their new environment for a minimum of 5 days prior to surgery. […] The catheters are plugged with removable metal plugs at the free end and then exteriorized by threading them under the skin and through a small incision at the nape of the neck. Animals are allowed to recover overnight prior to dosing. […] In vivo mouse experiments are conducted with conscious male Swiss Webster mice implanted with a carotid artery catheter. All procedures followed have been reviewed by the NoAb BioDiscoveries Inc. animal care committee and were performed in accordance with the principles of the Canadian Council on Animal Care (CCAC).
A device to extract components is attached to the carotid artery catheter prior to dosing each rat or mouse. To insert the probes, the tip of the SPME probe needle is used to pierce the septum of the device. […]
(§2) Areas under the plasma concentration versus time curves (AUCs) represent the areas under the curve from the time of dosing and extrapolated to infinity. […] Mean residence times (MRT) are calculated as: AUMC/AUC, where AUMC denotes the area under the first moment curve. The steady-state volume of distribution (Vss) is calculated as: CL*MRT.
(§3) AUCs are calculated by the linear/log-linear trapezoidal rule. […]

[2] = Conventional plasma sampling and analysis for pharmacokinetics after i.v. bolus diazepam; conditions: male, Sprague-Dawley, rat, iv
Protocol: as §1
For each time point (5, 15, 30, 45, 60, 75, 120, 180, 240 and 360 min), the probes are in place for about two (2) minutes before the stated analysis time and blood draws are performed immediately after removing the probes. […]
as §2, §3

Compound: CN1C(=O)CN=C(c2ccccc2)c2cc(Cl)ccc21 [diazepam]
- AUC ([1]; 0.5 mg/kg): 172 ng·h/mL
- AUC ([1]; 1 mg/kg): 236 ng·h/mL
- AUC ([2]; 0.5 mg/kg): 157 ng·h/mL
- AUC ([2]; 1 mg/kg): 303 ng·h/mL
